Experimental data published in the supplement of paper PMC4604168 (melanoma cell lines).
Some of the results follow. Repeats are few or missing, and single values can be far off.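 Imaging used 1,536-well plates; nuclei positive for cleaved PARP by antibody were divided by total DNA-stained nuclei to yield the apoptosis fraction. Doses for screening kept most cells viable, and cell lines differ markedly in resting and induced cleaved-PARP levels.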

These compounds were tested on C32 (assay: cleaved PARP positive nuclei fraction relative to DMSO control; melanoma cells; higher = more apoptosis). Settings: library dose: low library concentration; 72 h.
In the case of `Cc1nc(Nc2ncc(C(=O)Nc3c(C)cccc3Cl)s2)cc(N2CCN(CCO)CC2)n1` [dasatanib] + O=C(CCCCCCC(=O)Nc1ccccc1)NO [vorinostat] (first compound 0.004 µM, partner dose 0.08 µM), the “cleaved PARP positive nuclei fraction” value is reported as 383%.
`Nc1cccc2c1CN(C1CCC(=O)NC1=O)C2=O` (stereo unspecified) [lenalidomide] + CC(C)(C)c1cnc(CSc2cnc(NC(=O)C3CCNCC3)s2)o1 [SNS-032] (first compound 1 µM, partner dose 0.01 µM) was tested, and the “cleaved PARP positive nuclei fraction” value was 118%.
With `OCc1c[nH]c2ccccc12` [Indole-3-carbinol] + Cc1ccc(NC(=O)c2cccc(N(C)C)c2)cc1NC(=O)c1ccc(O)cc1 [ZM336372] (first compound 0.8 µM, partner dose 2 µM) the “cleaved PARP positive nuclei fraction” value was 68.4%.
In the case of `COc1cc(Nc2ncc(F)c(Nc3ccc4c(n3)NC(=O)C(C)(C)O4)n2)cc(OC)c1OC` [Tamatinib] + COc1cc2c(Oc3ccc4[nH]c(C)cc4c3F)ncnc2cc1OCCCN1CCCC1 [cediranib] (first compound 0.4 µM, partner dose 0.4 µM), the “cleaved PARP positive nuclei fraction” value is reported as 101%.
`C#Cc1cccc(Nc2ncnc3cc(OCCOC)c(OCCOC)cc23)c1` [erlotinib] + CC(C)(C)c1cnc(CSc2cnc(NC(=O)C3CCNCC3)s2)o1 [SNS-032] (first compound 0.8 µM, partner dose 0.01 µM) was tested, and the “cleaved PARP positive nuclei fraction” value was 67.1%.
For `Clc1ccc(Nc2nnc(Cc3ccncc3)c3ccccc23)cc1` [vatalanib] + Cc1cc(N2CCOCC2)cc2[nH]c(-c3c(NC[C@@H](O)c4cccc(Cl)c4)cc[nH]c3=O)nc12 [BMS536924] (first compound 2 µM, partner dose 0.2 µM), the “cleaved PARP positive nuclei fraction” value was 179%.
For `CC(=O)c1c(C)c2cnc(Nc3ccc(N4CCNCC4)cn3)nc2n(C2CCCC2)c1=O` [palbociclib] + Cn1cncc1[C@@](N)(c1ccc(Cl)cc1)c1ccc2c(c1)c(-c1cccc(Cl)c1)cc(=O)n2C [tipifarnib] (first compound 0.04 µM, partner dose 0.01 µM), the “cleaved PARP positive nuclei fraction” value was 92.1%.
With `C[C@]1(c2nc3c(C(N)=O)cccc3[nH]2)CCCN1` [Veliparib] + Cc1ccc(NC(=O)c2cccc(N(C)C)c2)cc1NC(=O)c1ccc(O)cc1 [ZM336372] (first compound 1.4 µM, partner dose 2 µM) the “cleaved PARP positive nuclei fraction” value was 101%.
In the case of `C=CCn1c(=O)c2cnc(Nc3ccc(N4CCN(C)CC4)cc3)nc2n1-c1cccc(C(C)(C)O)n1` + CN(C)S(=O)(=O)c1ccc2c(c1)/C(=C/c1cc3c([nH]1)CCCC3)C(=O)N2 [SU6656] (first compound 0.02 µM, partner dose 0.4 µM), the “cleaved PARP positive nuclei fraction” value is reported as 83.6%.
With `Clc1ccc(Nc2nnc(Cc3ccncc3)c3ccccc23)cc1` [vatalanib] + O=C(CCCCCCC(=O)Nc1ccccc1)NO [vorinostat] (first compound 2 µM, partner dose 0.08 µM) the “cleaved PARP positive nuclei fraction” value was 140%.
For `OCc1c[nH]c2ccccc12` [Indole-3-carbinol] + COc1cc(Nc2ncc(F)c(Nc3ccc4c(n3)NC(=O)C(C)(C)O4)n2)cc(OC)c1OC [Tamatinib] (first compound 0.8 µM, partner dose 0.4 µM), the “cleaved PARP positive nuclei fraction” value was 163%.
In the case of `COCC[n+]1c2c(n(Cc3cnccn3)c1C)C(=O)c1ccccc1C2=O` + C=CCn1c(=O)c2cnc(Nc3ccc(N4CCN(C)CC4)cc3)nc2n1-c1cccc(C(C)(C)O)n1 [MK1775] (first compound 0.0004 µM, partner dose 0.02 µM), the “cleaved PARP positive nuclei fraction” value is reported as 105%.
`C=CCNC1=C2C[C@@H](C)C[C@H](OC)[C@H](O)[C@@H](C)/C=C(\C)[C@H](OC(N)=O)[C@@H](OC)/C=C\C=C(/C)C(=O)NC(=CC1=O)C2=O` [Tanespimycin] + COc1cc(Nc2ncc(F)c(Nc3ccc4c(n3)NC(=O)C(C)(C)O4)n2)cc(OC)c1OC [Tamatinib] (first compound 0.002 µM, partner dose 0.4 µM) was tested, and the “cleaved PARP positive nuclei fraction” value was 81.7%.
With `OCc1c[nH]c2ccccc12` [Indole-3-carbinol] + C=CCn1c(=O)c2cnc(Nc3ccc(N4CCN(C)CC4)cc3)nc2n1-c1cccc(C(C)(C)O)n1 [MK1775] (first compound 0.8 µM, partner dose 0.02 µM) the “cleaved PARP positive nuclei fraction” value was 97.8%.
In the case of `Cc1ccc(NC(=O)c2cccc(N(C)C)c2)cc1NC(=O)c1ccc(O)cc1` + CN(NC(=O)CC(=O)NN(C)C(=S)c1ccccc1)C(=S)c1ccccc1 [STA4783] (first compound 2 µM, partner dose 0.006 µM), the “cleaved PARP positive nuclei fraction” value is reported as 102%.
`Clc1ccc(Nc2nnc(Cc3ccncc3)c3ccccc23)cc1` [vatalanib] + COc1cc2c(Oc3ccc4[nH]c(C)cc4c3F)ncnc2cc1OCCCN1CCCC1 [cediranib] (first compound 2 µM, partner dose 0.4 µM) was tested, and the “cleaved PARP positive nuclei fraction” value was 80.6%.
In the case of `Cn1nnc2c(C(N)=O)ncn2c1=O` [temozolomide] + O=C(O)c1ccc(-c2c[nH]c3ncc(-c4ccccc4)cc23)cc1C1CCCC1 [GSK650394] (first compound 2 µM, partner dose 0.16 µM), the “cleaved PARP positive nuclei fraction” value is reported as 96.1%.
`CC1(C)NC(=O)N(c2ccc([N+](=O)[O-])c(C(F)(F)F)c2)C1=O` [nilutamide] + CC(C)(C)c1cnc(CSc2cnc(NC(=O)C3CCNCC3)s2)o1 [SNS-032] (first compound 1 µM, partner dose 0.01 µM) was tested, and the “cleaved PARP positive nuclei fraction” value was 111%.
In the case of `CC(C)(C)c1cnc(CSc2cnc(NC(=O)C3CCNCC3)s2)o1` + CN(C)S(=O)(=O)c1ccc2c(c1)/C(=C/c1cc3c([nH]1)CCCC3)C(=O)N2 [SU6656] (first compound 0.01 µM, partner dose 0.4 µM), the “cleaved PARP positive nuclei fraction” value is reported as 169%.
`CC(=O)c1c(C)c2cnc(Nc3ccc(N4CCNCC4)cn3)nc2n(C2CCCC2)c1=O` [palbociclib] + CN(C)S(=O)(=O)c1ccc2c(c1)/C(=C/c1cc3c([nH]1)CCCC3)C(=O)N2 [SU6656] (first compound 0.04 µM, partner dose 0.4 µM) was tested, and the “cleaved PARP positive nuclei fraction” value was 122%.
`CO[C@@H]1[C@H](N(C)C(=O)c2ccccc2)C[C@H]2O[C@]1(C)n1c3ccccc3c3c4c(c5c6ccccc6n2c5c31)C(=O)NC4` [Midostaurin] + C[C@@H]1CCN(C(=O)CC#N)C[C@@H]1N(C)c1ncnc2[nH]ccc12 [CP690550] (first compound 0.08 µM, partner dose 1 µM) was tested, and the “cleaved PARP positive nuclei fraction” value was 145%.
For `O=C(CCCCCCC(=O)Nc1ccccc1)NO` [vorinostat] + CC1(C)NC(=O)N(c2ccc([N+](=O)[O-])c(C(F)(F)F)c2)C1=O [nilutamide] (first compound 0.08 µM, partner dose 1 µM), the “cleaved PARP positive nuclei fraction” value was 76.7%.
In the case of `Cc1ccc(NC(=O)c2cccc(N(C)C)c2)cc1NC(=O)c1ccc(O)cc1` + COc1cc2c(Oc3ccc4[nH]c(C)cc4c3F)ncnc2cc1OCCCN1CCCC1 [cediranib] (first compound 2 µM, partner dose 0.4 µM), the “cleaved PARP positive nuclei fraction” value is reported as 114%.
`OCc1c[nH]c2ccccc12` [Indole-3-carbinol] + CN(NC(=O)CC(=O)NN(C)C(=S)c1ccccc1)C(=S)c1ccccc1 [STA4783] (first compound 0.8 µM, partner dose 0.006 µM) was tested, and the “cleaved PARP positive nuclei fraction” value was 101%.
In the case of `Cn1c(Nc2ccc(C(F)(F)F)cc2)nc2cc(Oc3ccnc(-c4ncc(C(F)(F)F)[nH]4)c3)ccc21` + NCC(=O)Nc1ccc(-n2nc(C(F)(F)F)cc2-c2ccc3c(ccc4ccccc43)c2)cc1 [OSU03012] (first compound 0.08 µM, partner dose 1 µM), the “cleaved PARP positive nuclei fraction” value is reported as 29.1%.
For `CO[C@@H]1[C@H](N(C)C(=O)c2ccccc2)C[C@H]2O[C@]1(C)n1c3ccccc3c3c4c(c5c6ccccc6n2c5c31)C(=O)NC4` [Midostaurin] + COc1cc2c(Oc3ccc4[nH]c(C)cc4c3F)ncnc2cc1OCCCN1CCCC1 [cediranib] (first compound 0.08 µM, partner dose 0.4 µM), the “cleaved PARP positive nuclei fraction” value was 41.3%.
`C=CCNC1=C2C[C@@H](C)C[C@H](OC)[C@H](O)[C@@H](C)/C=C(\C)[C@H](OC(N)=O)[C@@H](OC)/C=C\C=C(/C)C(=O)NC(=CC1=O)C2=O` [Tanespimycin] + O=C(O)c1ccc(-c2c[nH]c3ncc(-c4ccccc4)cc23)cc1C1CCCC1 [GSK650394] (first compound 0.002 µM, partner dose 0.16 µM) was tested, and the “cleaved PARP positive nuclei fraction” value was 58.8%.
In the case of `CC1(C)NC(=O)N(c2ccc([N+](=O)[O-])c(C(F)(F)F)c2)C1=O` [nilutamide] + C=CCn1c(=O)c2cnc(Nc3ccc(N4CCN(C)CC4)cc3)nc2n1-c1cccc(C(C)(C)O)n1 [MK1775] (first compound 1 µM, partner dose 0.02 µM), the “cleaved PARP positive nuclei fraction” value is reported as 80.6%.
In the case of `Nc1cccc2c1CN(C1CCC(=O)NC1=O)C2=O` (stereo unspecified) [lenalidomide] + CC1(C)NC(=O)N(c2ccc([N+](=O)[O-])c(C(F)(F)F)c2)C1=O [nilutamide] (first compound 1 µM, partner dose 1 µM), the “cleaved PARP positive nuclei fraction” value is reported as 141%.
`CO[C@@H]1[C@H](N(C)C(=O)c2ccccc2)C[C@H]2O[C@]1(C)n1c3ccccc3c3c4c(c5c6ccccc6n2c5c31)C(=O)NC4` [Midostaurin] + NCC(=O)Nc1ccc(-n2nc(C(F)(F)F)cc2-c2ccc3c(ccc4ccccc43)c2)cc1 [OSU03012] (first compound 0.08 µM, partner dose 1 µM) was tested, and the “cleaved PARP positive nuclei fraction” value was 76%.
With `C=CCn1c(=O)c2cnc(Nc3ccc(N4CCN(C)CC4)cc3)nc2n1-c1cccc(C(C)(C)O)n1` + C[C@@H]1CCN(C(=O)CC#N)C[C@@H]1N(C)c1ncnc2[nH]ccc12 [CP690550] (first compound 0.02 µM, partner dose 1 µM) the “cleaved PARP positive nuclei fraction” value was 73.5%.
